In publication PMC7862700 one finds binding signal data, which are given here for 65 sequences.

Protein sequences, listed by entry. Tags and fused reporters are not part of them. Lines headed by an entry give the natural chain unless they say otherwise; changes in a name come on top.
UniProt P50549: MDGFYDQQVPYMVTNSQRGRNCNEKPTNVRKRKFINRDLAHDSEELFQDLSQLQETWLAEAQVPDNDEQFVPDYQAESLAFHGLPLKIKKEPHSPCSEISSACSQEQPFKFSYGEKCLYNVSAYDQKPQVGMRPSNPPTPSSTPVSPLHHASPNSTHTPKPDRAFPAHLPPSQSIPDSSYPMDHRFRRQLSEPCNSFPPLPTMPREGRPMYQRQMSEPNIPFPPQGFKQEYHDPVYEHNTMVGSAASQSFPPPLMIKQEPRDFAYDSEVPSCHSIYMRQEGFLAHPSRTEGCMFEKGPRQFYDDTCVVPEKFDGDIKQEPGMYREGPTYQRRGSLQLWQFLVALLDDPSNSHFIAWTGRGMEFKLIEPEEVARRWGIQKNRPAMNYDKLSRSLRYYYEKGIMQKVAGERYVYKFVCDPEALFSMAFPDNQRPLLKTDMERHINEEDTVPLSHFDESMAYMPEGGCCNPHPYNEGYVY
UniProt P32519: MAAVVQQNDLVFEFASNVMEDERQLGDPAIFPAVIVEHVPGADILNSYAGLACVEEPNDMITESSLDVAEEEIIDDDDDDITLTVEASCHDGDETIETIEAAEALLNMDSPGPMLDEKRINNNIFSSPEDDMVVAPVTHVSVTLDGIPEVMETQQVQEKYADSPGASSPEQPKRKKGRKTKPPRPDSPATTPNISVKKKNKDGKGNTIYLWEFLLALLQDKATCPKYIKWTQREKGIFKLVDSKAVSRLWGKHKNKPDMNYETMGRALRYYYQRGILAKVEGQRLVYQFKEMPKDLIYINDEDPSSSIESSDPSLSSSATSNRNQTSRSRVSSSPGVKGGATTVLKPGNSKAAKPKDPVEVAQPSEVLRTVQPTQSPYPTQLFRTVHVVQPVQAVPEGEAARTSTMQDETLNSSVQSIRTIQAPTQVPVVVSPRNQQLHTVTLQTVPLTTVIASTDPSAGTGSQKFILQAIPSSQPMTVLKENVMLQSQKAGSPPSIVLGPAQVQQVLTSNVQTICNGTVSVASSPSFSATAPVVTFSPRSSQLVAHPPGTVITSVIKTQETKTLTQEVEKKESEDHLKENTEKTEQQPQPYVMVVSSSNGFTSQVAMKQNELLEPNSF

The list shows a part of the results, in another mix than the full data. For some assays here: At the low end of the ranking the order means little. Some of the results follow. For some assays here: Construct or isoform of the protein are uncertain.

Holding throughout (test): DAPPL (digital affinity profiling via proximity ligation, sequencing)
Conditions in all cases: 10 mM Tris-HCl pH 7.5, 50 mM NaCl, 1 mM DTT, 4% glycerol, room temperature, 30 min; GST-TFs on glutathione beads, 16-mer random dsDNA library, 0.1% …; high values mean tight binding; double strand, one strand shown; scale: fold enrichment (6-mer frequency, TF over GST control)

In assay [1] the target is T1, ELK4 (UniProt P28324-2).
T1 sequence: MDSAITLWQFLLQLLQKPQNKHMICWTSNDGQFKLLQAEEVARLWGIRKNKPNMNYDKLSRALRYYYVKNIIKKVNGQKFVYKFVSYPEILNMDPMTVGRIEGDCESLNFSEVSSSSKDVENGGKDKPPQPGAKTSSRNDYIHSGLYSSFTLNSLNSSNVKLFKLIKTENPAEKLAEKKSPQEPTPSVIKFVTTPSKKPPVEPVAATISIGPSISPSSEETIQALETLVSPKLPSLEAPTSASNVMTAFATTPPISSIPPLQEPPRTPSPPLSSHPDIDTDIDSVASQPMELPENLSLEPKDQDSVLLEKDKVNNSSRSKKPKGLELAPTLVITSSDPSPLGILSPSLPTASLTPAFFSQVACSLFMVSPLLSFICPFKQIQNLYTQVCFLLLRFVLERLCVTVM

Assay [2] addresses T2, ETV4 (UniProt P43268).
T2 sequence: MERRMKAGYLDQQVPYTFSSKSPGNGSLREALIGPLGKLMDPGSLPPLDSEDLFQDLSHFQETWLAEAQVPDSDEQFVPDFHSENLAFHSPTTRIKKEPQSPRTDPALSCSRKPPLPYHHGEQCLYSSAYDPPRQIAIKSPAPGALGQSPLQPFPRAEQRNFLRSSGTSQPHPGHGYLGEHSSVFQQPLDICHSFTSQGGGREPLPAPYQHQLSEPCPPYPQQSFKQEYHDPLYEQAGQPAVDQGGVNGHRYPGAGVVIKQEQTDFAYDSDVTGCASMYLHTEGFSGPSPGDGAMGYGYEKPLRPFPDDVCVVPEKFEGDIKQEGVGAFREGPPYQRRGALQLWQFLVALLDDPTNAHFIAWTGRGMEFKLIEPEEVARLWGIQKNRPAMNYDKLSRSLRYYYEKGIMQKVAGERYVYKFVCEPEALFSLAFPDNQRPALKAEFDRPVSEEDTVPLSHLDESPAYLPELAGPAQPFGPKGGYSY

Assay [3] deals with ETV1 (UniProt P50549).
In assay [4] the target is T3, ERF (UniProt P50548).
T3 sequence: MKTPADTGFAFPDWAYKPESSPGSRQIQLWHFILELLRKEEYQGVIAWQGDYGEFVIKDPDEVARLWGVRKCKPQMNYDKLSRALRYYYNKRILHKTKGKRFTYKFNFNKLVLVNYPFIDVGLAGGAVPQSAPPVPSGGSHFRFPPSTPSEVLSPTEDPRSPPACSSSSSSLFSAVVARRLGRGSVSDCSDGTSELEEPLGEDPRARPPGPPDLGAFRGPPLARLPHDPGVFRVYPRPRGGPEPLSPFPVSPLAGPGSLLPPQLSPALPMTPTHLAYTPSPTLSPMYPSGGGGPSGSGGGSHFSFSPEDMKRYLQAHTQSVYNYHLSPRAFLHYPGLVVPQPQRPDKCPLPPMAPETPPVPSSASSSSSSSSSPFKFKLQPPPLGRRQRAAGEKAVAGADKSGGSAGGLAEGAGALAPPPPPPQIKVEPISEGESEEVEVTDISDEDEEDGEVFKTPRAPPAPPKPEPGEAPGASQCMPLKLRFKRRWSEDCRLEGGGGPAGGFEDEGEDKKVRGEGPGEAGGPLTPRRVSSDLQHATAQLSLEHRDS

The target in assay [5] is ELF1 (UniProt P32519).

Regarding AACAAG, the binding signal in assay [1] is 1.01; in assay [2], 1.04; in assay [3], 1.13; in assay [4], 1.19.
Turning to TACCTG, the binding signal in assay [1] stood at 1.07; in assay [2], 1.12; in assay [3] it was 1.27.
With ACTCAG, the binding signal was 0.916 in assay [1], 1.04 in assay [2], 0.947 in assay [3] and 0.848 in assay [4].
On to GTCACT, for which the binding signal came out at 1.07 in assay [1], 1.1 in assay [2] and 0.992 in assay [3].
As to GTCTTG, the binding signal in assay [1] was found to be 1.02; in assay [2] it was 1.06; in assay [3], 0.963.
Regarding AGGATA, the binding signal in assay [5] was determined as 0.964; in assay [1] it was 0.95; in assay [2] it was 0.998; in assay [3], 0.933; in assay [4], 0.989.
Turning to ATTACC, the binding signal worked out at 1.21 in assay [1], 1.17 in assay [2] and 1.23 in assay [3].
For the sequence TGGGAA, the binding signal in assay [5] came to 0.993; in assay [1], 0.936; in assay [2] it was 1; in assay [3], 0.956; in assay [4] it was 1.04.
Consider CTTTGG, for which the binding signal in assay [1] worked out at 1.02; in assay [2] it was 1.16; in assay [3], 1.17; in assay [4], 1.19.
With TGTATT, the binding signal in assay [1] amounted to 1.33; in assay [2] it was 1.42; in assay [3], 1.4; in assay [4], 1.36.
Consider CCGGTG, for which the binding signal in assay [5] was found to be 0.918; in assay [1], 0.816; in assay [2], 1.07; in assay [3] it was 0.977; in assay [4], 0.971.
Take AGTACA: the binding signal in assay [1] worked out at 1.07; in assay [2] it was 1.14; in assay [3] it was 1.11; in assay [4], 1.06.
Regarding GTACGA, the binding signal amounted to 1.08 in assay [5]; 1.04 in assay [1]; 1.08 in assay [2]; 0.999 in assay [3]; 0.899 in assay [4].
As for CATGGC, the binding signal in assay [1] was found to be 0.949; in assay [2], 1.06; in assay [3] it was 1; in assay [4], 0.97.
The corresponding values for AGACTT are 0.986, 1.06, 0.973 and 1.02.
The corresponding values for ACGGAA are 1.5, 1.63, 1.85 and 1.53.
The corresponding values for AAGTGT are 1.21, 1.39, 1.39 and 1.24.
Regarding CGGCTG, the binding signal is 0.958 in assay [5]; 0.898 in assay [1]; 1.13 in assay [2]; 0.91 in assay [3]; 0.958 in assay [4].
For the sequence AGGGAA, the binding signal in assay [5] was 0.911; in assay [1], 0.849; in assay [2] it was 0.88; in assay [3], 0.951; in assay [4] it was 0.929.
On to TCCTGC, for which the binding signal in assay [1] is 1.36; in assay [2], 1.63; in assay [3], 1.6; in assay [4] it was 1.43.
For GGTTAT the same measures were 0.989, 1.04, 0.989 and 0.904.
The corresponding values for TTGCGA are 1.11, 1.14, 1.15 and 1.29.
Regarding CGGATT, the binding signal was 0.918 in assay [5]; 0.879 in assay [1]; 0.934 in assay [2]; 0.905 in assay [3]; 0.929 in assay [4].
On to TCGGCT, for which the binding signal in assay [5] is 0.917; in assay [1], 0.945; in assay [2] it was 0.947; in assay [3] it was 0.978; in assay [4], 0.951.
For ACGTAC the same measures were 1.16, 1.24, 1.2, 1.18 and 1.16.
In the case of TGGAAC, the binding signal was 0.901 in assay [1], 1.03 in assay [2], 1.04 in assay [3] and 0.962 in assay [4].
Turning to CCATGG, the binding signal in assay [1] is 0.991; in assay [2], 1.01; in assay [3], 0.967; in assay [4] it was 0.999.
The corresponding values for GTTATG are 1.23, 1.18, 1.14 and 1.05.
The corresponding values for CCGCTG are 1.2, 1.04, 0.993 and 1.03.
As for ATGGCG, the binding signal in assay [5] stood at 1.06; in assay [1] it was 0.956; in assay [2], 1.13; in assay [3] it was 0.96; in assay [4] it was 0.965.
ATATTG: the binding signal in assay [1] was 1.24; in assay [2], 1.27; in assay [3], 1.32; in assay [4], 1.31.
GAAATT: the binding signal in assay [1] was 1.17; in assay [2] it was 1.18; in assay [3], 1.28.
In the case of CTAGAA, the binding signal stood at 0.998 in assay [1], 1.01 in assay [2], 0.937 in assay [3] and 1.28 in assay [4].
On to GCCCGC, for which the binding signal in assay [1] was determined as 1.15; in assay [2], 1.19; in assay [3], 1.06.
The corresponding values for GCAACC are 0.939, 1.12 and 1.02.
For the sequence ATAAGA, the binding signal in assay [1] turned out to be 1.11; in assay [2], 1.07; in assay [3], 1.1; in assay [4], 1.14.
In the case of TGTGGC, the binding signal in assay [5] was 0.97; in assay [1], 1.16; in assay [2] it was 1.04; in assay [3], 1.05; in assay [4], 0.903.
AGTAAC: the binding signal in assay [5] is 0.997; in assay [1], 0.907; in assay [2] it was 1.03; in assay [3] it was 0.948.
On to TGCGCC, for which the binding signal in assay [1] was 0.974; in assay [2], 1.12; in assay [4], 1.12.
As for TTCAGA, the binding signal in assay [5] was found to be 0.922; in assay [1] it was 0.881; in assay [2] it was 0.975; in assay [3], 0.949; in assay [4] it was 0.97.
Take TAGTGG: the binding signal in assay [5] came to 1.28; in assay [1], 1.37; in assay [2] it was 1.3; in assay [3], 1.14.
On to GTTAAA, for which the binding signal in assay [5] is 0.992; in assay [1], 1.04; in assay [2], 0.981; in assay [3] it was 0.96; in assay [4], 1.09.
The corresponding values for AGAACC are 0.913, 0.898, 0.894, 0.931 and 0.933.
On to GGGAAA, for which the binding signal in assay [5] amounted to 0.949; in assay [1], 0.89; in assay [2], 0.948; in assay [3], 0.958.
For ACAAAC the same measures were 1.12, 1.08, 1.11 and 1.12.
As to TATATG, the results for the binding signal in assay [1], in assay [2] and in assay [4] were 1.65, 1.44 and 1.48, respectively.
As for GGATCT, the binding signal in assay [5] stood at 0.962; in assay [1], 0.856; in assay [2], 1.06; in assay [3], 1.03; in assay [4] it was 0.949.
For the sequence TTAGAT, the binding signal worked out at 1.03 in assay [5], 1.23 in assay [1], 1.08 in assay [2] and 0.986 in assay [3].
With GCGATA, the binding signal in assay [5] was determined as 0.999; in assay [1], 1.07; in assay [2] it was 1.08; in assay [3], 0.969; in assay [4] it was 0.917.
Consider TGTTTC, for which the results for the binding signal in assay [1], in assay [2] and in assay [4] were 1.55, 1.88 and 1.86, respectively.
The corresponding values for ATCTAT are 1.18, 1.04 and 1.12.
As to ACGAGC, the binding signal in assay [5] was 0.974; in assay [1], 0.931; in assay [2] it was 0.965; in assay [3] it was 0.982; in assay [4], 0.953.
Take TCAGAT: the binding signal came out at 0.948 in assay [1], 1.06 in assay [2] and 0.933 in assay [4].
Turning to TGGCGA, the binding signal in assay [5] amounted to 0.956; in assay [1] it was 0.935; in assay [2], 0.978; in assay [3], 0.924; in assay [4], 0.97.
Consider GTGGAT, for which the binding signal in assay [5] is 0.919; in assay [1], 0.898; in assay [2] it was 0.878; in assay [3] it was 0.895; in assay [4], 0.858.
For the sequence TTCCAC, the binding signal in assay [5] was determined as 1.45; in assay [1], 1.39; in assay [2], 1.48; in assay [3], 1.38.
CCGCAG: the binding signal came to 1.01 in assay [5]; 0.991 in assay [1]; 1.09 in assay [2]; 0.961 in assay [3]; 1.12 in assay [4].
ATAGAT: the binding signal in assay [5] is 1.23; in assay [1], 1.13; in assay [2], 1.15; in assay [3] it was 1.19.
The corresponding values for GCCCTC are 1.17, 1.1, 1.2 and 1.18.
For ACCCAT the same measures were 1.25, 1.17, 1.31 and 1.19.
The corresponding values for CTCCAA are 1.3, 1.23, 1.26 and 1.33.
As to CCCATC, the binding signal in assay [5] turned out to be 1.12; in assay [1] it was 1.3; in assay [2], 1.28; in assay [3], 1.18.
On to TTTGCC, for which the binding signal in assay [1] was 1.37; in assay [2], 1.41; in assay [4], 1.31.
Turning to AGCGCT, the binding signal in assay [5] is 1.05; in assay [1], 0.851; in assay [2], 1.16; in assay [3], 1.02.
For CAAGTA, the results for the binding signal in assay [1], in assay [2] and in assay [4] were 0.989, 1.12 and 1.14, respectively.
